Measured values as given in PubChem BioAssay AID2685 (National Center for Advancing Translational Sciences (NCATS), 2010).
This is one part of the list. These are further read-outs of the screen, such as a control signal, another cell line or another target. No call is given for them. Most of these compounds were active or inconclusive in the main read-out, so they are no random draw. Potencies come from curve fits of mixed quality, noted in brackets.

Assay: qHTS Assay for Lipid Storage Modulators in Drosophila S3 Cells;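 for cell number change: cells counted by Cell Tracker Red CMTPX staining in the red channel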
Settings: BODIPY lipid droplet fluorescence, 18-24 h; for cell number change: measured here: cell count max response, cells fed with added oleic acid
Procedure, shortened: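 Drosophila S3 cells got compounds at several concentrations plus oleic acid (400 uM solution). Laser-scanning cytometry with 488 nm excitation read lipid droplets at 500-530 nm and cells at 575-640 nm. Percent activity was relative to 20 uM Triacsin C.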

[1] = measured here: cell number channel AC50, cells fed with added oleic acid
[2] = measured here: lipid fluorescence (Fed channel) AC50, cells fed with added oleic acid

SMILES: COC(CNC(=O)C1CCC(CNS(=O)(=O)c2c(C)cc(C)cc2C)CC1)OC (stereo not given)
- cell number change: -39%
- AC50 [1]: 0.92 µM [falling, full curve]
- AC50 [2]: 0.58 µM [falling, single point]

SMILES: CCCCNC(=O)N1CCCN(c2ccc(C#N)cn2)CC1
- AC50 [2]: 29.1 µM [rising, single point]

SMILES: COc1ccc(NC(=O)N2CCN(S(C)(=O)=O)CC2)cc1OC
- AC50 [2]: 29.1 µM [rising, single point]

SMILES: COc1ccc(/C=C2\SC(=O)N(CC(=O)N(C)C3CCS(=O)(=O)C3)C2=O)cc1 (stereo not given)
- cell number change: 24.2%

SMILES: CCOC(=O)C(C(=O)OCC)=C1OC(=O)c2ccccc21
- cell number change: 8.25%
- AC50 [2]: 2.59 µM [rising, single point]

SMILES: Cc1cccc(NC(=O)c2ccc([N+](=O)[O-])o2)c1
- AC50 [2]: 18.4 µM [falling, partial curve]

SMILES: CC(=O)c1cn(CC(=O)Nc2ccccc2Cl)c2ccccc12
- cell number change: 6.45%
- AC50 [2]: 3.66 µM [falling, full curve]

SMILES: CCCCC(=O)Nc1ncc2c(n1)CC(C)(C)CC2=O
- cell number change: 17.6%

SMILES: C[C@@H](CN=[N+]=[N-])CN1CC[C@H](C(C)(C)C)CCC1=O
- cell number change: -12.9%
- AC50 [2]: 29.1 µM [falling, single point]

SMILES: CC(C)COc1ccc(C(=O)Nc2ccc(NC(=O)c3ccco3)c(Cl)c2)cc1
- AC50 [1]: 2.59 µM [rising, partial curve]
- AC50 [2]: 6.51 µM [rising, single point]

SMILES: C/C(O)=C(/C=Nc1ccccc1)C(=O)Nc1ccccc1
- cell number change: -11.5%

SMILES: Cc1ccnc(NC(=O)c2ccc(COc3c(F)c(F)cc(F)c3F)o2)c1
- cell number change: -12.4%
- AC50 [2]: 0.731 µM [falling, single point]

SMILES: COc1ccc(Cl)cc1S(=O)(=O)N1CCN(C)CC1
- cell number change: -19.1%
- AC50 [2]: 0.0651 µM [rising, full curve, poor fit]

SMILES: CC(=O)c1ccc(NC(=O)[C@@]2(CC(=O)O)CC(/C=C/c3ccccc3)=NO2)cc1
- cell number change: -23.9%

SMILES: Cn1cc(/C=N\O)nc2c(=O)n(-c3ccccc3)c(=O)nc1-2
- cell number change: 0.493%
- AC50 [2]: 9.2 µM [falling, partial curve, poor fit]

SMILES: COCCCNC(=O)CCn1c(=O)c2ccccc2n(CC(=O)Nc2ccc(C)cc2C)c1=O
- cell number change: -33.8%
- AC50 [2]: 29.1 µM [rising, partial curve, poor fit]

SMILES: COc1ccccc1C(=O)N1CCc2ccccc21
- cell number change: 1.08%

SMILES: COc1ccc(S(=O)(=O)N2CCC(c3nc4ccccc4[nH]3)CC2)cc1
- cell number change: 22.1%
- AC50 [2]: 5.17 µM [rising, partial curve]

SMILES: COc1ccc(-c2ccnc(-c3ccc(OCCCF)cc3)n2)cc1
- AC50 [2]: 29.1 µM [rising, single point]

SMILES: CCCCCC1CC(CC(=O)Nc2ccc([N+](=O)[O-])cc2)OC1=O (stereo not given)
- cell number change: 15.4%
- AC50 [2]: 0.517 µM [falling, full curve, poor fit]

SMILES: Cc1ccnc(NC(=O)CS(=O)(=O)Cc2ccccc2)c1
- cell number change: 25.2%

SMILES: CO/N=C/c1ccc(Oc2ccc(C)cc2)c([N+](=O)[O-])c1
- cell number change: 24.8%
- AC50 [2]: 23.1 µM [rising, single point]

SMILES: COc1ccc(N/C(C)=C2/C(=O)C(=O)N(CCO)C2c2ccc(Br)cc2)cc1 (stereo not given)
- cell number change: 10.1%
- AC50 [2]: 0.731 µM [rising, full curve, poor fit]

SMILES: COC(=O)c1ccc(-n2c(C)cc(/C=N/n3cnnc3)c2C)cc1
- cell number change: 11.6%
- AC50 [2]: 0.58 µM [falling, partial curve]

SMILES: COc1cc(/C=N/NC(=O)C(N)=O)cc(OC)c1O
- cell number change: -14.5%

SMILES: CCN(CC(=O)NCc1ccc(Cl)cc1)C(=O)c1cc2ccccc2o1
- cell number change: 24.6%

SMILES: Cc1nn(-c2ccccc2)c(N)c1Sc1cccc([N+](=O)[O-])c1
- cell number change: 4.13%
- AC50 [1]: 4.11 µM [falling, single point]
- AC50 [2]: 0.731 µM [rising, partial curve]

SMILES: CN1CCN(CCCn2cnc3c(=O)oc4ccccc4c32)CC1
- cell number change: -41.9%
- AC50 [1]: 1.16 µM [falling, partial curve]
- AC50 [2]: 29.1 µM [falling, single point]

SMILES: O=C1CC(Sc2nnnn2-c2ccccc2)C(=O)N1c1cccc(Cl)c1 (stereo not given)
- cell number change: -101%
- AC50 [1]: 18.4 µM [falling, single point]
- AC50 [2]: 29.1 µM [falling, single point]

SMILES: O=C(NCCN1CCOCC1)C1CCN(c2nc3ccccc3o2)CC1
- cell number change: 9.46%
- AC50 [2]: 0.58 µM [rising, single point]

SMILES: Cc1noc(C)c1COc1ccc(CC(=O)NCc2ccccc2)cc1
- cell number change: 56.1%
- AC50 [1]: 2.06 µM [rising, partial curve, poor fit]

SMILES: O=C1N=C(N2CCCCC2)SC1=C1CCCCC1
- cell number change: 14%
- AC50 [2]: 2.91 µM [falling, single point]

SMILES: Cc1ccc(C(=O)NCCc2c[nH]c3ccccc23)c(C)c1
- cell number change: 25.6%
- AC50 [1]: 0.058 µM [rising, full curve, poor fit]

SMILES: CN(CC(=O)Nc1cccc(S(=O)(=O)N2CCCC2)c1)CC(=O)Nc1ccc(Cl)c(C(F)(F)F)c1
- cell number change: -40.9%
- AC50 [1]: 10.3 µM [falling, partial curve]
- AC50 [2]: 1.46 µM [falling, partial curve]

SMILES: CC(=O)OC1c2ccccc2C(=O)N1c1ccccc1C (stereo not given)
- cell number change: 8.31%
- AC50 [2]: 3.26 µM [rising, full curve]

SMILES: CC1=NN(C(=O)c2ccc(Br)cc2)C(O)(c2ccccc2)C1 (stereo not given)
- cell number change: 33.3%
- AC50 [1]: 29.1 µM [rising, single point]
- AC50 [2]: 29.1 µM [rising, single point]

SMILES: C=C(C)CNC(=S)Nc1cccc(N)n1
- cell number change: 8%
- AC50 [1]: 6.51 µM [falling, single point]

SMILES: Cc1ccc(/C=N/NC(=O)c2ccccc2OCc2cccc(Br)c2)o1
- cell number change: 40%
- AC50 [1]: 0.0058 µM [rising, full curve, poor fit]
- AC50 [2]: 2.06 µM [rising, partial curve]

SMILES: Cc1ccc(Nc2cc(C)nc3nc(C)nn23)cc1
- cell number change: 18.4%
- AC50 [2]: 1.16 µM [rising, partial curve]

SMILES: Cc1nnc(NC(=O)CCn2c(=O)oc3ccc(Cl)cc32)s1
- cell number change: -6.49%
- AC50 [2]: 29.1 µM [rising, single point]
